PubChem BioAssay AID743454 | Peter MacCallum Cancer Centre, 2014
Here is one part, drawn at random, of about 18,000 reagents. 450 of them (2.5%) were called active. 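Single biological run; no consistent viability z cut-off exists, so the class columns, not z-scores, define the calls.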

Screen: 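Search for knock-downs that restore vorinostat killing in resistant colon cancer cells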 (primary screen)
Cell system: human HCT116-VR colon cancer cells, selected for vorinostat resistance
Reagents: siRNA pool against human genes, 40 nM siRNA pool
Duration: vorinostat for 24 h, read-out about 72 h after transfection
Treatment: vorinostat at 2.5 µM final
Measured: 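Two measures, CellTiter-Fluor viability and luminescent caspase 3/7 activity, each as fold change against same-plate mock wells, mean of duplicates, then screen-wide robust z-score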
Scale: viability robust z-score: higher = more viable cells than screen typical; caspase robust z-score: higher = more caspase 3/7 activity than screen typical
Rule for the call: 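Hits are knock-downs in viability class RV1/RV2 or caspase class CA1/CA2, excluding ones that killed cells in the no-drug cell-count arm; hits then retested with single siRNAs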

Gene,PubChem SID,viability hit class,caspase hit class,viability robust z-score,caspase robust z-score,Call
CCDC30,SID135625669,no change,no change,-0.59,-0.68,inactive
MYH13,SID135622350,no change,no change,-0.57,-0.27,inactive
FAAP100,SID152148676,no change,no change,-0.73,0.09,inactive
CD68,SID135622085,no change,no change,0.11,-0.02,inactive
PTPRJ,SID135621576,no change,no change,-1.58,-1.05,inactive
OR4N4,SID152156287,no change,no change,-0.4,-0.4,inactive
FGGY,SID135621259,no change,no change,-0.34,-1.01,inactive
NLRC5,SID152152595,no change,no change,0,0.09,inactive
BIRC2,SID152156419,no change,no change,-0.58,1.96,inactive
PARP12,SID152148031,no change,no change,1.32,0.48,inactive
ANKEF1,SID134320456,no change,no change,0.6,1.09,inactive
CSTF3,SID135622091,no change,no change,-0.54,0.52,inactive
ACKR3,SID152147303,no change,no change,0.57,1.91,inactive
U2SURP,SID135624389,no change,no change,-0.7,-0.44,inactive
SIAH1,SID135622346,no change,no change,-2.55,-0.06,inactive
RETSAT,SID134321981,no change,no change,-1.1,-0.48,inactive
OR5D13,SID152147863,no change,no change,-0.77,1.54,inactive
SLC45A1,SID152150672,no change,no change,1.07,0.3,inactive
ANKRD13C,SID135622792,no change,no change,0.18,-0.09,inactive
PLEKHG4,SID152148236,no change,no change,0.34,-0.9,inactive
OR2G6,SID152149294,no change,no change,0.5,-0.64,inactive

6 consecutive reagents already listed, for reference:
Gene,PubChem SID,viability hit class,caspase hit class,viability robust z-score,caspase robust z-score,Call
FGGY,SID135621259,no change,no change,-0.34,-1.01,inactive
NLRC5,SID152152595,no change,no change,0,0.09,inactive
BIRC2,SID152156419,no change,no change,-0.58,1.96,inactive
PARP12,SID152148031,no change,no change,1.32,0.48,inactive
ANKEF1,SID134320456,no change,no change,0.6,1.09,inactive
CSTF3,SID135622091,no change,no change,-0.54,0.52,inactive

The list goes on:
Gene,PubChem SID,viability hit class,caspase hit class,viability robust z-score,caspase robust z-score,Call
NCOA1,SID152155432,no change,no change,0.88,-0.52,inactive
PDK2,SID56478952,no change,no change,0.02,0.6,inactive
CXCL1,SID134310144,no change,no change,0.72,-0.3,inactive
PHKA2,SID56479176,no change,no change,-0.78,-0.57,inactive
PNLIP,SID152149178,no change,no change,0.53,-0.53,inactive
LIPT1,SID134313279,no change,no change,-1.49,1.48,inactive
TNFRSF6B,SID134313028,no change,no change,-1.62,0.34,inactive
CTDSPL,SID152147969,no change,no change,1.68,0.08,inactive
GPN1,SID152151648,no change,no change,-0.54,1.06,inactive
ARHGEF2,SID134314580,no change,no change,-1.68,-0.16,inactive
ACP1,SID135623669,no change,no change,-1.8,0.46,inactive
NFAT5,SID134314347,no change,no change,-0.37,1.86,inactive
PRDX4,SID134316493,no change,no change,1.16,-0.32,inactive
PUDP,SID152156467,no change,no change,0.38,1.82,inactive
FLAD1,SID134313491,no change,no change,0.78,3.97,inactive
CDHR4,SID135624749,no change,no change,-2.29,1.18,inactive
DYNC1I1,SID152153774,no change,no change,0.88,0.56,inactive
CC2D1B,SID152149207,no change,no change,0.46,-0.27,inactive
